Patent publication US20210040177A1
These are yes or no findings as the source states them, for the method shown. Some results given as binding are weak or reduced against the parent protein; the word gives no strength.

Key:
[1] = target: B7-1-Fc (R&D Systems Cat #140-B1) (UniProt P33681); assay: SPR; B7-1-Fc injected over molecule held on immobilised lysozyme
[2] = target: B7-1-Fc (R&D Systems Cat #140-B1) (UniProt P33681); assay: SPR (Biacore X100); Fab-VLD captured on a biotin-lysozyme surface, B7-1-Fc as analyte; binding level plotted as % of Rmax against analyte concentration, linear axis 0-30 ug/ml
[3] = target: B7-1-Fc (R&D Systems Cat #140-B1) (UniProt P33681); assay: SPR (Biacore X100); B7-1-Fc injected over molecule held on immobilised lysozyme
[4] = target: B7-1-Fc (R&D Systems Cat #140-B1) (UniProt P33681); assay: SPR (Biacore X100); Fab-VLDx1 (LC) held on immobilised lysozyme, B7-1-Fc injected at 25, 12.5, 6.25, 3.125, 1.56 (and 0) ug/ml according to the legend and text

- binding [1]: binds
- binding [2]: binds
- binding [3]: binds
- binding [4]: binds
B1: D1.3 Fab-VLDx1 (LC) (bispecific antibody)
heavy: EVKLQESGPGLVAPSQSLSITCTVSGFSLTGYGVNWVRQPPGKGLEWLGMIWGDGNTDYNSALKSRLSISKDNSKSQVFLKMNSLHTDDTARYYCARERDYRLDYWGQGTTVTVSSASTKGPSVFPLAPSSKSTSGGTAALGCLVKDYFPEPVTVSWNSGALTSGVHTFPAVLQSSGLYSLSSVVTVPSSSLGTQTYICNVNHKPSNTKVDKRVEPKSCAAAGLGGHHHHHHGAAEQKLISEEDL
light: DIELTQSPASLSASVGETVTITCRASGNIHNYLAWYQQKQGKSPQLLVYYTTTLADGVPSRFSGSGSGTQYSLKINSLQPEDFGSYYCQHFWSTPRTFGGGTKLELKRTVAAPSVFIFPPSDEQLKSGTASVVCLLNNFYPREAKVQWKVDNALQSGNSQESVTEQDSKDSTYSLSSTLTLSKADYEKHKVYACEVTHQGLSSPVTKSFNRGECSGGGGSGGGGSGGGGSGGGGSKAMHVAQPAVVLASSRGIASFVCEYASPGKYTEVRVTVLRQADSQVTEVCAATYMTGNELTFLDDSICTGTSSGNQVNLTIQGLRAMDTGLYICKVELMYPPPYYLGIGNGTQIYVIDPEPSPDSN
